Test results as given in PMC7618116.
These are yes or no findings as the source states them, for the method shown. In cells and extracts the contact can be indirect. Some entries that bind do so weakly or less than the wild type.

Amino acid sequences for entries named in this document (tags omitted). Residues count along the entry.
UniProt Q61037: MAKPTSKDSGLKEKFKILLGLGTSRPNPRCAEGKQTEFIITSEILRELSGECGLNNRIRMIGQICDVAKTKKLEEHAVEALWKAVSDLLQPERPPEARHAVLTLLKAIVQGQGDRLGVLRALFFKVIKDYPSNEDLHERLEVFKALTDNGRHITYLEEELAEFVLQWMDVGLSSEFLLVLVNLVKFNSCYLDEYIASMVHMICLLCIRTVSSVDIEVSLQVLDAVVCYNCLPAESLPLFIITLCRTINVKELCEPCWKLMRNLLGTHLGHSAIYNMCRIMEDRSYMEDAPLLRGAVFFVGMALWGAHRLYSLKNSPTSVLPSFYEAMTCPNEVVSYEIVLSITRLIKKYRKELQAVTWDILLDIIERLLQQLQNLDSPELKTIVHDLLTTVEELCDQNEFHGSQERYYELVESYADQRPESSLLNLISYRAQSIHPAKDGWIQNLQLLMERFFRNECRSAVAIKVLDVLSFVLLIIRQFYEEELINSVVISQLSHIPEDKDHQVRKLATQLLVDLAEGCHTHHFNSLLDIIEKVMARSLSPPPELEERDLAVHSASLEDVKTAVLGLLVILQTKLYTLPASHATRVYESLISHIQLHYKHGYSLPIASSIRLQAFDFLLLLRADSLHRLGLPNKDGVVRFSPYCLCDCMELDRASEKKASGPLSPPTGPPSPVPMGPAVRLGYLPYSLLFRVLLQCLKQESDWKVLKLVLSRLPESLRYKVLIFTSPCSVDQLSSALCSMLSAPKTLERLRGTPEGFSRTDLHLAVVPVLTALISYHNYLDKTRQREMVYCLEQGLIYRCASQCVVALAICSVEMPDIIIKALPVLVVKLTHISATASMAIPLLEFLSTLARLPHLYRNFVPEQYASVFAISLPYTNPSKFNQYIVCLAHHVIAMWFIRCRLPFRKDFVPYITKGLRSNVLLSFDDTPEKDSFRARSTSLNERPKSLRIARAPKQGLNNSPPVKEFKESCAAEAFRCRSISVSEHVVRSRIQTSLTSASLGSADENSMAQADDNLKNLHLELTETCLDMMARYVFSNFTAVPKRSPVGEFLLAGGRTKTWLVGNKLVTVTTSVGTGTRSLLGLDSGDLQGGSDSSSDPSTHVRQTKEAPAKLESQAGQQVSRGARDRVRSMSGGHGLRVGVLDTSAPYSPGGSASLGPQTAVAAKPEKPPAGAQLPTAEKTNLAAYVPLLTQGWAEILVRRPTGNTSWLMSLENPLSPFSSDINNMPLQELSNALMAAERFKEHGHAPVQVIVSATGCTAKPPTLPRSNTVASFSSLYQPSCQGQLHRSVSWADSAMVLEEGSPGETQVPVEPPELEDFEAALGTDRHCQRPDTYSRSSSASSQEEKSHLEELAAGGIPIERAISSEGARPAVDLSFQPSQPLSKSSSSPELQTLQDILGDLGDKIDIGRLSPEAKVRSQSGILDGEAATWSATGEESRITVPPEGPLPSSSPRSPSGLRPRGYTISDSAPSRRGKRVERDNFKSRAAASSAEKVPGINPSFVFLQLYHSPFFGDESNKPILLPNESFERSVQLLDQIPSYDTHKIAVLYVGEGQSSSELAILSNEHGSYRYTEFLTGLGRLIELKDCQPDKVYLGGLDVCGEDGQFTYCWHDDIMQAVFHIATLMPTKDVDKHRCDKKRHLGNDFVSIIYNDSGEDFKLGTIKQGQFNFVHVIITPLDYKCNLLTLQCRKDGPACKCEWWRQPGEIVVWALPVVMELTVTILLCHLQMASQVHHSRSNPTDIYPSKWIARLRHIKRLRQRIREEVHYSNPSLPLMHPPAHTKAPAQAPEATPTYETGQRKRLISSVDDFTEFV
UniProt Q61527, residues 26-1308: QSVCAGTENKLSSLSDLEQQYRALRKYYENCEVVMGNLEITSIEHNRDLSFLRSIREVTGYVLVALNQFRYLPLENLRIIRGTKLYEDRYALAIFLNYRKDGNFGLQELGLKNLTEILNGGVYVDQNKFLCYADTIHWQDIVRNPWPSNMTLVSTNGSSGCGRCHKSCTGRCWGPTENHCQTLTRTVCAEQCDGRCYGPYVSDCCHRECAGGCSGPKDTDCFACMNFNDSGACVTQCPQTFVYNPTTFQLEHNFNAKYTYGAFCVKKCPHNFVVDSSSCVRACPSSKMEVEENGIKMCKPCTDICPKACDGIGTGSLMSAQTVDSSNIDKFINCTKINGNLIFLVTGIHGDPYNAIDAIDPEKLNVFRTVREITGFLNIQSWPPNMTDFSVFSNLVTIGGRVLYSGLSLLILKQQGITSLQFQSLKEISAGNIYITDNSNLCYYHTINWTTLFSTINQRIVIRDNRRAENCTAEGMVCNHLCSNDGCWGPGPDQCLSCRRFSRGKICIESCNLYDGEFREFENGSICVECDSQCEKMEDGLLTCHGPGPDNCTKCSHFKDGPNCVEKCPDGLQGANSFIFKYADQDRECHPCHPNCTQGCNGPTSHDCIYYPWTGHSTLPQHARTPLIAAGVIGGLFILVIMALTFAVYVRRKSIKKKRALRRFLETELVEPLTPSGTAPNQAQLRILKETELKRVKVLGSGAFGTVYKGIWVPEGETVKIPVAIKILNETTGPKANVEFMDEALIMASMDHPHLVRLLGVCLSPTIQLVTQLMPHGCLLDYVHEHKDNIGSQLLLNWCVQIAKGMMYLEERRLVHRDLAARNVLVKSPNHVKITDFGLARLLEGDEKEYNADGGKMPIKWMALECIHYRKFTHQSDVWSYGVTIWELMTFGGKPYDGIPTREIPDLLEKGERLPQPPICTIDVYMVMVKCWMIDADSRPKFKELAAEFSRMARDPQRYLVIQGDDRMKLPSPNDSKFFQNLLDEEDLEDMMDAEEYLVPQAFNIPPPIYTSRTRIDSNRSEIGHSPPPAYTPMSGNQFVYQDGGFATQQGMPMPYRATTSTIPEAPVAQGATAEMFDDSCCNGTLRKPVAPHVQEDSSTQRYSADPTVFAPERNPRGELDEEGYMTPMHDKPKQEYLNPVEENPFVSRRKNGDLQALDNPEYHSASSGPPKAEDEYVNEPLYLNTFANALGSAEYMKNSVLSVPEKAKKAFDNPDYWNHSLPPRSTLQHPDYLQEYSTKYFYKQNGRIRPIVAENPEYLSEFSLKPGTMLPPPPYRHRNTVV

Target: TSC subunit 2 (Tsc2) (mouse (endogenous in cortical synaptosomes)) (UniProt Q61037)
Assay: co-IP; cortical synaptosomes from P15 C57BL/6 mice in 20 mM Tris-HCl pH 8, 120 mM NaCl, 1% NP40, 1% glycerol; overnight at 4 °C with rabbit anti-Tsc2, rabbit anti-ErbB4 or rabbit IgG isotype control; Dynabeads Protein G; six washes; Western blot

binding: binds
Substance: Erb-B2 receptor tyrosine kinase 4 (ErbB4) (from UniProt Q61527 26-1308)
